Test results: patent US7312179B2, “Cyclopropyl-thienyl-carboxamide as fungicides” (Syngenta Crop Protection, Inc., priority 2002, dated 2007)
Some entries share one result that the patent states for a list of compounds. Some ranges recur; such a range may be that of the whole group of compounds.

Key:
Type in all cases: in vivo
Puccinia recondita = assay: Action against Puccinia recondita/wheat (brownrust on wheat); conditions: wheat cv. Arina, spray 0.02% active ingredient, inoculated one day after application, assessed 10 days after inoculation
Podosphaera leucotricha = assay: Action against Podosphaera leucotricha/apple (powdery mildew on apple); conditions: apple seedlings cv. McIntosh, spray 0.002% active ingredient, inoculated one day after application, assessed after 12 days incubation
Venturia inaequalis = assay: Action against Venturia inaequalis/apple (scab on apple); conditions: apple seedlings cv. McIntosh, spray 0.02% active ingredient, inoculated one day after application
Erysiphe Graminis = assay: Action against Erysiphe graminis/barley (powdery mildew on barley); conditions: barley cv. Express, spray 0.02% active ingredient, inoculated one day after application, assessed after 6 days incubation
Pyrenophora teres = assay: Action against Pyrenophora teres/barley (net blotch on barley); conditions: barley cv. Express, spray 0.002% active ingredient, inoculated two days after application, assessed 4 days after inoculation
Altemaria solani = assay: Action against Altemaria solani/tomato (early blight on tomatoes); conditions: tomato cv. Roter Gnom, spray 0.02% active ingredient, inoculated two days after application, assessed after 3 days incubation
Uncinula necator = assay: Action against Uncinula necator/grape (powdery mildew on grapes); conditions: grape seedlings cv. Gutedel, spray 0.02% active ingredient, inoculated one day after application, assessed after 7 days incubation
Septoria tritici = assay: Action against Septoria tritici/wheat (Septoria leaf spot on wheat); conditions: wheat cv. Riband, spray 0.02% active ingredient, inoculated one day after application, assessed 18 days after inoculation

SMILES: Cn1cc(C(=O)Nc2ccsc2C2CC2C(C)(C)C)c(C(F)(F)F)n1 (stereo not drawn) [Compound 4.23]
- infestation (Puccinia recondita): 0-5%
- infestation (Podosphaera leucotricha): < 20%
- infestation (Venturia inaequalis): < 20%
- infestation (Erysiphe Graminis): < 20%
- infestation (Pyrenophora teres): < 20%

SMILES: Cn1cc(C(=O)Nc2ccsc2C2CC2C(C)(C)C)c(C(F)F)n1 (stereo not drawn) [Compound 4.24]
- infestation (Puccinia recondita): 0-5%
- infestation (Podosphaera leucotricha): < 20%
- infestation (Venturia inaequalis): < 20%
- infestation (Erysiphe Graminis): < 20%
- infestation (Pyrenophora teres): < 20%

SMILES: Cn1cc(C(=O)Nc2ccsc2C2CC2C2CC2)c(C(F)(F)F)n1 (stereo not drawn) [Compound 4.33]
- infestation (Puccinia recondita): 0-5%
- infestation (Podosphaera leucotricha): < 20%
- infestation (Venturia inaequalis): < 20%
- infestation (Erysiphe Graminis): < 20%
- infestation (Pyrenophora teres): < 20%
- disease incidence (Altemaria solani): < 20%
- disease incidence (Uncinula necator): < 20%

SMILES: Cn1cc(C(=O)Nc2ccsc2C2CC2C2CC2)c(C(F)F)n1 (stereo not drawn) [Compound 4.34, 3-difluoromethyl-1-methyl-1H-pyrazole-4-carboxylic acid (2-bicyclo-propyl-2-yl-thiophen-3-yl)amide]
- infestation (Puccinia recondita): 0-5%
- infestation (Podosphaera leucotricha): < 20%
- infestation (Venturia inaequalis): < 20%
- infestation (Erysiphe Graminis): < 20%
- infestation (Pyrenophora teres): < 20%
- disease incidence (Altemaria solani): < 20%
- disease incidence (Uncinula necator): < 20%

SMILES: Cn1cc(C(=O)Nc2ccsc2C2CC2C2(C)CC2)c(C(F)(F)F)n1 (stereo not drawn) [Compound 4.76]
- infestation (Podosphaera leucotricha): < 20%
- infestation (Venturia inaequalis): < 20%
- infestation (Erysiphe Graminis): < 20%
- infestation (Pyrenophora teres): < 20%
- disease incidence (Altemaria solani): < 20%
- disease incidence (Uncinula necator): < 20%
- disease incidence (Septoria tritici): < 20%

SMILES: Cn1cc(C(=O)Nc2ccsc2C2CC2C2(C)CC2)c(C(F)F)n1 (stereo not drawn) [Compound 4.77]
- infestation (Puccinia recondita): 0-5%
- infestation (Podosphaera leucotricha): < 20%
- infestation (Venturia inaequalis): < 20%
- infestation (Erysiphe Graminis): < 20%
- infestation (Pyrenophora teres): < 20%
- disease incidence (Altemaria solani): < 20%
- disease incidence (Uncinula necator): < 20%
- disease incidence (Septoria tritici): < 20%

SMILES: Cc1nn(C)c(F)c1C(=O)Nc1ccsc1C1CC1C1(C)CC1 (stereo not drawn) [Compound 4.78]
- infestation (Puccinia recondita): 0-5%
- infestation (Podosphaera leucotricha): < 20%
- infestation (Venturia inaequalis): < 20%
- infestation (Erysiphe Graminis): < 20%
- infestation (Pyrenophora teres): < 20%
- disease incidence (Altemaria solani): < 20%
- disease incidence (Uncinula necator): < 20%
- disease incidence (Septoria tritici): < 20%

SMILES: Cn1cc(C(=O)Nc2ccsc2C2CC2C(C)(C)C)c(C(F)(F)F)c1 (stereo not drawn) [Compound 5.23]
- infestation (Puccinia recondita): 0-5%
- infestation (Podosphaera leucotricha): < 20%
- infestation (Venturia inaequalis): < 20%
- infestation (Erysiphe Graminis): < 20%
- infestation (Pyrenophora teres): < 20%

SMILES: Cn1cc(C(=O)Nc2ccsc2C2CC2C2CC2)c(C(F)(F)F)c1 (stereo not drawn) [Compound 5.33]
- infestation (Puccinia recondita): 0-5%
- infestation (Podosphaera leucotricha): < 20%
- infestation (Venturia inaequalis): < 20%
- infestation (Erysiphe Graminis): < 20%
- infestation (Pyrenophora teres): < 20%
- disease incidence (Altemaria solani): < 20%
- disease incidence (Uncinula necator): < 20%

SMILES: Cn1cc(C(=O)Nc2ccsc2C2CC2C2(C)CC2)c(C(F)(F)F)c1 (stereo not drawn) [Compound 5.76]
- infestation (Puccinia recondita): 0-5%
- infestation (Podosphaera leucotricha): < 20%
- infestation (Venturia inaequalis): < 20%
- infestation (Erysiphe Graminis): < 20%
- infestation (Pyrenophora teres): < 20%
- disease incidence (Altemaria solani): < 20%
- disease incidence (Uncinula necator): < 20%
- disease incidence (Septoria tritici): < 20%

SMILES: Cc1nc(C(F)(F)F)c(C(=O)Nc2ccsc2C2CC2C(C)(C)C)s1 (stereo not drawn) [Compound 10.12]
- infestation (Puccinia recondita): 0-5%
- infestation (Podosphaera leucotricha): < 20%
- infestation (Venturia inaequalis): < 20%
- infestation (Erysiphe Graminis): < 20%
- infestation (Pyrenophora teres): < 20%

SMILES: Cc1nc(C(F)(F)F)c(C(=O)Nc2ccsc2C2CC2C2CC2)s1 (stereo not drawn) [Compound 10.20]
- infestation (Puccinia recondita): 0-5%
- infestation (Podosphaera leucotricha): < 20%
- infestation (Venturia inaequalis): < 20%
- infestation (Erysiphe Graminis): < 20%
- infestation (Pyrenophora teres): < 20%
- disease incidence (Altemaria solani): < 20%
- disease incidence (Uncinula necator): < 20%

SMILES: Cc1nc(C(F)(F)F)c(C(=O)Nc2ccsc2C2CC2C2(C)CC2)s1 (stereo not drawn) [Compound 10.49]
- infestation (Puccinia recondita): 0-5%
- infestation (Podosphaera leucotricha): < 20%
- infestation (Venturia inaequalis): < 20%
- infestation (Erysiphe Graminis): < 20%
- infestation (Pyrenophora teres): < 20%
- disease incidence (Altemaria solani): < 20%
- disease incidence (Septoria tritici): < 20%

SMILES: CC(C)(C)C1CC1c1sccc1NC(=O)c1cccnc1Cl (stereo not drawn) [Compound 13.11]
- infestation (Pyrenophora teres): < 20%

SMILES: CC1(C2CC2c2sccc2NC(=O)c2cccnc2Cl)CC1 (stereo not drawn) [Compound 13.53]
- infestation (Pyrenophora teres): < 20%
- disease incidence (Altemaria solani): < 20%
- disease incidence (Uncinula necator): < 20%
